Our source for the binding values is PMC11853149.

Chains of the proteins cited; added tags and fusions are not shown.
UniProt P51858: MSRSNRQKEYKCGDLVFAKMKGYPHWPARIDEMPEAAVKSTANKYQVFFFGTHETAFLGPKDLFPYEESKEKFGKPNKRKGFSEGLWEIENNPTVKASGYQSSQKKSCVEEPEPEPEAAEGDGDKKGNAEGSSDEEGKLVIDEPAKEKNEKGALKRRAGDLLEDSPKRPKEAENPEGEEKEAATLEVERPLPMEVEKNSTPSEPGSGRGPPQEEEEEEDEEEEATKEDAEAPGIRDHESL
UniProt P78527: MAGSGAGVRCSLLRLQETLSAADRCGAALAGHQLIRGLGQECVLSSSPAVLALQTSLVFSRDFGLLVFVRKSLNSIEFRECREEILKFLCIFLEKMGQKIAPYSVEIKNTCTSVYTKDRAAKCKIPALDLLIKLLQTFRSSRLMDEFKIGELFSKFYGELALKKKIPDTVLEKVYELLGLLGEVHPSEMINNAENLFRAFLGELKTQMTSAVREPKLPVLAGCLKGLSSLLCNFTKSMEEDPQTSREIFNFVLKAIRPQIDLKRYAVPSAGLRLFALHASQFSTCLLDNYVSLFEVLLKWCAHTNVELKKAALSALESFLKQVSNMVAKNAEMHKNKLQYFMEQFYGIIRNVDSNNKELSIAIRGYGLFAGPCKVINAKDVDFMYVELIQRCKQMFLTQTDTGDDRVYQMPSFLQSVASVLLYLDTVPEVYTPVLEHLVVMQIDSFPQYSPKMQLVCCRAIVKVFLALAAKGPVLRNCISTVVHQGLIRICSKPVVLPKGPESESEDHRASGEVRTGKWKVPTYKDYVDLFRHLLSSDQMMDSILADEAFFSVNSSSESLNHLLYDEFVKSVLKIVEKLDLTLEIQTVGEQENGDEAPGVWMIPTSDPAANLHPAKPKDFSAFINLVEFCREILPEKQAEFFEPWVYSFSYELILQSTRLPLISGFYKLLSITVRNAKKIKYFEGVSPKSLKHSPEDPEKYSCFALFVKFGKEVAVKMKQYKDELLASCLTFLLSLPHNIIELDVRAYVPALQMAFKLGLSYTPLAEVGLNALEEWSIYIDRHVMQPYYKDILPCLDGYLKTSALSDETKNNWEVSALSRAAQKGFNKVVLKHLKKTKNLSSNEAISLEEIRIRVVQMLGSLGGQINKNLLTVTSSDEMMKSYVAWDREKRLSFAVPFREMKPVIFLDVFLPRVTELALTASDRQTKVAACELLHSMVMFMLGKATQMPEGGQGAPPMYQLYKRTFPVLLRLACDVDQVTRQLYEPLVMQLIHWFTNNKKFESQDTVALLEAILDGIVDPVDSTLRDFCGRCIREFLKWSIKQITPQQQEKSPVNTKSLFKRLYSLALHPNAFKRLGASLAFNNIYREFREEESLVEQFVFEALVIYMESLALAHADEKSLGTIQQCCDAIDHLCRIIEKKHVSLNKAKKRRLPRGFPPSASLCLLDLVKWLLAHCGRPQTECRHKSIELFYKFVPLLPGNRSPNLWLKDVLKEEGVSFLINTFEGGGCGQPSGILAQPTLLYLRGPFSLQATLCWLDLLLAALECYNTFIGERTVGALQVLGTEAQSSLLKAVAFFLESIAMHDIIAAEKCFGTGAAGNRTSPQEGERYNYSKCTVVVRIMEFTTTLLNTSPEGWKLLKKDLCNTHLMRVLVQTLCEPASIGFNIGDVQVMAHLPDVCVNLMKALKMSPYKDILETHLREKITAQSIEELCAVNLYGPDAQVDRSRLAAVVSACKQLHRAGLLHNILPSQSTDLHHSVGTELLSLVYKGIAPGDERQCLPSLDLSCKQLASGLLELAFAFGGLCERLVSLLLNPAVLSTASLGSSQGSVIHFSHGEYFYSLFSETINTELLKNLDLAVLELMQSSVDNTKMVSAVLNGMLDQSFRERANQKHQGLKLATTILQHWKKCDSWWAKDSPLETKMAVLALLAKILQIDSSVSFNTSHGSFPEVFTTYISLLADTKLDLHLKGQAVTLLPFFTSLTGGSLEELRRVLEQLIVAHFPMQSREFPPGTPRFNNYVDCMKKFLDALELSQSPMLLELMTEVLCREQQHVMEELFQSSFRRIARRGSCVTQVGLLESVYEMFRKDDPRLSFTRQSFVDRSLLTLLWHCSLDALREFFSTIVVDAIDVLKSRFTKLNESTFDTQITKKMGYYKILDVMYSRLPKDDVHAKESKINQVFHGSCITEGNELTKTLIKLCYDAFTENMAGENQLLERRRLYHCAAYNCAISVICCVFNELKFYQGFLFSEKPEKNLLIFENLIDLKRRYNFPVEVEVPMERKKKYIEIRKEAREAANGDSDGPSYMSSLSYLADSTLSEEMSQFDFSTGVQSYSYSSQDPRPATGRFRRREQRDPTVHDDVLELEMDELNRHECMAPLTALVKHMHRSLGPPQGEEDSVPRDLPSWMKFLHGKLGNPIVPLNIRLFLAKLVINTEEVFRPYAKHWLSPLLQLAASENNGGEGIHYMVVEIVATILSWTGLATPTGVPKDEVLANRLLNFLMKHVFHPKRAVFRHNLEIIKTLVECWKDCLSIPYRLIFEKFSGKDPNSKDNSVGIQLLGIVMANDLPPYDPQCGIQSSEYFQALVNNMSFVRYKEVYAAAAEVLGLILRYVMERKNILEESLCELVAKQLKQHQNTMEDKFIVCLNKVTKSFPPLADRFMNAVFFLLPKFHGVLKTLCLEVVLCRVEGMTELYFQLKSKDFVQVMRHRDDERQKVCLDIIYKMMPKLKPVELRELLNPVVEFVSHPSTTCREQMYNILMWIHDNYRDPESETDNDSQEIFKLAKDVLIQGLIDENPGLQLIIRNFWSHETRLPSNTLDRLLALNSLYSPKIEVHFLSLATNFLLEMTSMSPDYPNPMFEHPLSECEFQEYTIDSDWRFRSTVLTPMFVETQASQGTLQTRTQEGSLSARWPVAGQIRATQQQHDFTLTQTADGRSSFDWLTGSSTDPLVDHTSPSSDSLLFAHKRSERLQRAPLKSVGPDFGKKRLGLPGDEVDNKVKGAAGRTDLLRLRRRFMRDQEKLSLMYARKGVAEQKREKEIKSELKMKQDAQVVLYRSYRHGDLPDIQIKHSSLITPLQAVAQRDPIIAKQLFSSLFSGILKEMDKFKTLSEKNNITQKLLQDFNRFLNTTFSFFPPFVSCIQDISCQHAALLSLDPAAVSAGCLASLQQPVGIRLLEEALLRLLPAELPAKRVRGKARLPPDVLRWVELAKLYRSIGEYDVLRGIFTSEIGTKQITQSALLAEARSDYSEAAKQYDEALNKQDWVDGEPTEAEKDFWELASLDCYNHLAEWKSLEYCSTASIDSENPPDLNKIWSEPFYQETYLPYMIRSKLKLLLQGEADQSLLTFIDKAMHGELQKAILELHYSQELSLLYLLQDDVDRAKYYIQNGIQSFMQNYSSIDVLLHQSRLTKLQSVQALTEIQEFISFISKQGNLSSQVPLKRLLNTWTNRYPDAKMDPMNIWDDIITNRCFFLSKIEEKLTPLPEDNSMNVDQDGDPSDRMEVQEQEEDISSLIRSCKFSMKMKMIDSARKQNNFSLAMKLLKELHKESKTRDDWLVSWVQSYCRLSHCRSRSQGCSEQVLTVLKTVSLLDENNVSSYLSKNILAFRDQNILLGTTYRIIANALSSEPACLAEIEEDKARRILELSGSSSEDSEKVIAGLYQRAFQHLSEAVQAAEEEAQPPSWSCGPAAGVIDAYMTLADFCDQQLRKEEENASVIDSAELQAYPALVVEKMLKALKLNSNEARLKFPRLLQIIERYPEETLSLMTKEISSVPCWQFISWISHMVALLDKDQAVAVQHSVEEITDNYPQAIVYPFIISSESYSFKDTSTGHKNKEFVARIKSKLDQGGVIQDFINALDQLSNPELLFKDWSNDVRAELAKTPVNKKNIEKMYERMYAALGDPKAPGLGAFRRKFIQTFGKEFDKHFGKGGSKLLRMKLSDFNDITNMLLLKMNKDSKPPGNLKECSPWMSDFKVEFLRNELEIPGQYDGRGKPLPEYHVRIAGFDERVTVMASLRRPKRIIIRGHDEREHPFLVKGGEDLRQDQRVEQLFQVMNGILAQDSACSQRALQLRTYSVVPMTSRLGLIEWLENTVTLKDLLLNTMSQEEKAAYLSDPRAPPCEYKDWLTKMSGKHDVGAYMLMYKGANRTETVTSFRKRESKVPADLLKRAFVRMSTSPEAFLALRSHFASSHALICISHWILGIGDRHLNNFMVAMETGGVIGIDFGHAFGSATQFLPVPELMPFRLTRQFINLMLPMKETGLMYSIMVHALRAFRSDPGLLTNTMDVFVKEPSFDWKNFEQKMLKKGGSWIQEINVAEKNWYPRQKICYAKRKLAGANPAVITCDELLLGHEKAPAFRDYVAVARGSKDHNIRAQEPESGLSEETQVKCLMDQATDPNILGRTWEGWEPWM
UniProt P12956: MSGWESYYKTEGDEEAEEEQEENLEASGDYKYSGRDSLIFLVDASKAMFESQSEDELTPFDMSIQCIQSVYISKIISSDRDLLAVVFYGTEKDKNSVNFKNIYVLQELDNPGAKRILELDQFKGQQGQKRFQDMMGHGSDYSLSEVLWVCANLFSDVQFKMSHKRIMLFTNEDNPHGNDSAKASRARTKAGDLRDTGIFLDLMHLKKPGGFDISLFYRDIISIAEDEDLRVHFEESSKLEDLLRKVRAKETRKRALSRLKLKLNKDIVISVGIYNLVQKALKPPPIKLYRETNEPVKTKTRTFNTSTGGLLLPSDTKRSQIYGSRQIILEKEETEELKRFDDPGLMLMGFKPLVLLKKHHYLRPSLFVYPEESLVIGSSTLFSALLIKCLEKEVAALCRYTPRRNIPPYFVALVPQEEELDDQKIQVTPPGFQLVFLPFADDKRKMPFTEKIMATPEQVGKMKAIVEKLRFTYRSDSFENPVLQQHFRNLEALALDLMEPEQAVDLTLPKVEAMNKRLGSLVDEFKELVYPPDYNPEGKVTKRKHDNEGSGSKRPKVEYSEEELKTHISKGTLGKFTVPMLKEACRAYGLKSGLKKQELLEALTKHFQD
UniProt P13010: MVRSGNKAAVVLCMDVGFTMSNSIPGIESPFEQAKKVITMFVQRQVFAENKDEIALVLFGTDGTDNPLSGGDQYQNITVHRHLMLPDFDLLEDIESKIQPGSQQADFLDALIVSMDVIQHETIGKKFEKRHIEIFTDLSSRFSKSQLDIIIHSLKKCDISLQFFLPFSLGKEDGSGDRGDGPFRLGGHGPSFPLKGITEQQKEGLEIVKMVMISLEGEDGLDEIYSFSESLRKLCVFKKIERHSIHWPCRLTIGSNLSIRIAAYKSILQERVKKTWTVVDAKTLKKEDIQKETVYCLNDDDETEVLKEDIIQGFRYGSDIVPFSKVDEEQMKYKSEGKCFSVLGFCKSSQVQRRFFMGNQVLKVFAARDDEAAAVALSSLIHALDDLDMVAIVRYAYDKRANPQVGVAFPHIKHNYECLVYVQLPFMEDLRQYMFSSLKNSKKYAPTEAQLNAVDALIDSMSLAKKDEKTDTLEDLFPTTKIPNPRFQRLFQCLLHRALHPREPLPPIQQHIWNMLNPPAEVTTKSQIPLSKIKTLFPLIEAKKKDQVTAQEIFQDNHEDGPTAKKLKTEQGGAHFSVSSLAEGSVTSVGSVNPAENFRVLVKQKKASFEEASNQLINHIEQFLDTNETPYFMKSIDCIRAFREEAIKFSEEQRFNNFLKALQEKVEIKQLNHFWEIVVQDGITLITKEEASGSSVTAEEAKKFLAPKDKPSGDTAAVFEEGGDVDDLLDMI
UniProt P15927: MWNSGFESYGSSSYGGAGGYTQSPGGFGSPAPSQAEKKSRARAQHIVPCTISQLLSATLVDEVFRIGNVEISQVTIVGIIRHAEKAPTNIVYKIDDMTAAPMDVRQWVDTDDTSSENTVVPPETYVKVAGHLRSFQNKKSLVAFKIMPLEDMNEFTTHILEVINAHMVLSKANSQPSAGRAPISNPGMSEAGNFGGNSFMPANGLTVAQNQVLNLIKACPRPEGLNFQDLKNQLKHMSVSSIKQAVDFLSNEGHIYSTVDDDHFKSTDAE

These are yes or no findings as the source states them, for the method shown. Binding seen in cells or lysates may run through a third protein. Some entries that bind do so weakly or less than the wild type.

This experiment addresses Hepatoma-derived growth factor (HDGF) (human (endogenous in HT29 and HCT116)) (UniProt P51858). In words: co-IP; endogenous proteins in HT29 WT cells lysed in Pierce IP lysis buffer; magnetic beads pre-incubated with anti-HDGF or IgG control antibody, incubated with lysate overnight at 4 °C; immunoblot.
For DNA-PKcs (from UniProt P78527 1-4128), the binding result was “no binding”.

Take Ku70 (from UniProt P12956 1-609): the binding entry is given as “binds”.

Take Ku80 (from UniProt P13010 1-732): the binding entry is recorded as “binds”.

On to RPA2 (from UniProt P15927 1-270), for which the binding result is reported as “binds”.
